Laboratory results from the supplement of paper PMC4371806.
Whole data set: some 1,600 compounds, median “plate-normalized OD600 growth (mean of duplicates)” near 0.31, cut for the lowest 2% near 0.23. The list shows a part of the results.

System: Escherichia coli BW25113
Experiment: plate-normalized OD600 growth (mean of duplicates) (OD600 (normalized)); higher = more growth (less inhibition)
Settings: 10 µM
Description: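 E. coli BW25113 in LB (100 µl, 96-well, no shaking) was exposed to 10 µM of each compound (here the ChemBridge subset of a ~30,000-member library) and grown at 37°C for 24 h or 15°C for 48 h, in duplicate. Growth was read as OD600 and the duplicate ODs were normalized across screening plates to correct plate-to-plate variation.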

CC(Nc1cc(=O)n(C)c(=O)[nH]1)c1ccccc1 (stereo not given)
plate-normalized OD600 growth (temperature: 15°C, 48 h): 0.254
plate-normalized OD600 growth (temperature: 37°C, 24 h): 0.611

COc1ccc(NC(=O)COc2ccc([N+](=O)[O-])cc2)cc1
plate-normalized OD600 growth (temperature: 15°C, 48 h): 0.255
plate-normalized OD600 growth (temperature: 37°C, 24 h): 0.636

Clc1ccc(-c2csc(Nc3ccc4c(c3)OCO4)n2)cc1
plate-normalized OD600 growth (temperature: 15°C, 48 h): 0.24
plate-normalized OD600 growth (temperature: 37°C, 24 h): 0.61

O=C1CC(Cc2ccc(Cl)cc2)C(=O)N1C1CCCCC1 (stereo not given)
plate-normalized OD600 growth (temperature: 15°C, 48 h): 0.267
plate-normalized OD600 growth (temperature: 37°C, 24 h): 0.651

CC(C)NC(=O)c1ccc(C(C)(C)C)cc1
plate-normalized OD600 growth (temperature: 15°C, 48 h): 0.253
plate-normalized OD600 growth (temperature: 37°C, 24 h): 0.614

Cc1ccc2c(c1)c1c(n2CCN2C(=O)c3ccccc3C2=O)C(=O)CCC1
plate-normalized OD600 growth (temperature: 15°C, 48 h): 0.239
plate-normalized OD600 growth (temperature: 37°C, 24 h): 0.596

CCOc1ccc(Nc2nc(-c3ccc(CC(C)C)cc3)cs2)cc1
plate-normalized OD600 growth (temperature: 15°C, 48 h): 0.223
plate-normalized OD600 growth (temperature: 37°C, 24 h): 0.624

O=c1[nH]c(/C=C/c2ccc(Br)cc2)nc(O)c1[N+](=O)[O-]
plate-normalized OD600 growth (temperature: 15°C, 48 h): 0.261
plate-normalized OD600 growth (temperature: 37°C, 24 h): 0.626

Nc1ccc(Br)cc1-c1nc2ccccc2[nH]c1=O
plate-normalized OD600 growth (temperature: 15°C, 48 h): 0.254
plate-normalized OD600 growth (temperature: 37°C, 24 h): 0.608

CC(=O)C(=C(C)O)c1nc2ccccc2[nH]1
plate-normalized OD600 growth (temperature: 15°C, 48 h): 0.253
plate-normalized OD600 growth (temperature: 37°C, 24 h): 0.599

Cc1cc(C)c(S(=O)(=O)Nc2ccccc2F)c(C)c1
plate-normalized OD600 growth (temperature: 15°C, 48 h): 0.248
plate-normalized OD600 growth (temperature: 37°C, 24 h): 0.632

O=C1CCC(=O)N1CCc1c[nH]c2ccc(OCc3ccccc3)cc12
plate-normalized OD600 growth (temperature: 15°C, 48 h): 0.242
plate-normalized OD600 growth (temperature: 37°C, 24 h): 0.613

COc1cccc(NC(=O)c2cc(OC)cc(OC)c2)c1
plate-normalized OD600 growth (temperature: 15°C, 48 h): 0.246
plate-normalized OD600 growth (temperature: 37°C, 24 h): 0.644

CN(CCCc1ccccc1)CCc1ccccn1
plate-normalized OD600 growth (temperature: 15°C, 48 h): 0.26
plate-normalized OD600 growth (temperature: 37°C, 24 h): 0.659

Cc1nc2ccccc2c(C(=O)O)c1-c1ccccc1
plate-normalized OD600 growth (temperature: 15°C, 48 h): 0.248
plate-normalized OD600 growth (temperature: 37°C, 24 h): 0.612

CCC(CO)NC1=C([N+](=O)[O-])C(=O)CC(C)(C)C1 (stereo not given)
plate-normalized OD600 growth (temperature: 15°C, 48 h): 0.282
plate-normalized OD600 growth (temperature: 37°C, 24 h): 0.666

Cc1nc([N+](=O)[O-])c(NCCO)n1Cc1ccccc1
plate-normalized OD600 growth (temperature: 15°C, 48 h): 0.253
plate-normalized OD600 growth (temperature: 37°C, 24 h): 0.617

OCCN(Cc1ccccc1)CC1CC2C=CC1C2 (stereo not given)
plate-normalized OD600 growth (temperature: 15°C, 48 h): 0.238
plate-normalized OD600 growth (temperature: 37°C, 24 h): 0.601

COc1ccc(OC)c(/C=C(\C#N)c2ccc(Cl)cc2)c1
plate-normalized OD600 growth (temperature: 15°C, 48 h): 0.237
plate-normalized OD600 growth (temperature: 37°C, 24 h): 0.602

CCOC(=O)N1CCC(NC2C3CC4CC(C3)CC2C4)CC1 (stereo not given)
plate-normalized OD600 growth (temperature: 15°C, 48 h): 0.276
plate-normalized OD600 growth (temperature: 37°C, 24 h): 0.628

O=[N+]([O-])c1ccc(N2CCN(Cc3cccs3)CC2)cc1
plate-normalized OD600 growth (temperature: 15°C, 48 h): 0.22
plate-normalized OD600 growth (temperature: 37°C, 24 h): 0.599

CCN(CC)CCN(C)C/C=C/c1ccccc1
plate-normalized OD600 growth (temperature: 15°C, 48 h): 0.208
plate-normalized OD600 growth (temperature: 37°C, 24 h): 0.608

CC1CC2(C)Oc3ccccc3C3OCC1(CO)C(C)C32 (stereo not given)
plate-normalized OD600 growth (temperature: 15°C, 48 h): 0.29
plate-normalized OD600 growth (temperature: 37°C, 24 h): 0.635

O=C(O)C1CCCCC1C(=O)N1CCCC1 (stereo not given)
plate-normalized OD600 growth (temperature: 15°C, 48 h): 0.268
plate-normalized OD600 growth (temperature: 37°C, 24 h): 0.664

Cc1nc2nc(-c3cccs3)[nH]c2cc1Br
plate-normalized OD600 growth (temperature: 15°C, 48 h): 0.253
plate-normalized OD600 growth (temperature: 37°C, 24 h): 0.585

N#CC1=C(N)OC2=C(C(=O)CCC2)C1c1cccnc1 (stereo not given)
plate-normalized OD600 growth (temperature: 15°C, 48 h): 0.238
plate-normalized OD600 growth (temperature: 37°C, 24 h): 0.629

COc1ccc(-c2ccc(/C=C/C(=O)c3ccco3)o2)cc1
plate-normalized OD600 growth (temperature: 15°C, 48 h): 0.243
plate-normalized OD600 growth (temperature: 37°C, 24 h): 0.614

CN1CCN(C(=O)CC23CC4CC(CC(C4)C2)C3)CC1
plate-normalized OD600 growth (temperature: 15°C, 48 h): 0.244
plate-normalized OD600 growth (temperature: 37°C, 24 h): 0.636

O=C(CSc1ccccc1)c1c[nH]c2ccccc12
plate-normalized OD600 growth (temperature: 15°C, 48 h): 0.228
plate-normalized OD600 growth (temperature: 37°C, 24 h): 0.592

O=C(N/C(=C\c1ccco1)C(=O)N1CCCC1)c1cccs1
plate-normalized OD600 growth (temperature: 15°C, 48 h): 0.255
plate-normalized OD600 growth (temperature: 37°C, 24 h): 0.612
